According to the supplement of paper PMC3334620:
Whole data set: some 33,000 sequences, median “E-score (-0.5 to 0.5)” near -0.0059, cut for the highest 2% near 0.26. This is one part of the list.

Each sequence was assayed against T1, Cin5 (UniProt P40917) (assay: PBM E-score (8-mer binding enrichment) (E-score (-0.5 to 0.5)); higher = stronger / more preferred TF binding). Conditions: protein concentration: 100 nM; construct: GST-full length.
T1 sequence: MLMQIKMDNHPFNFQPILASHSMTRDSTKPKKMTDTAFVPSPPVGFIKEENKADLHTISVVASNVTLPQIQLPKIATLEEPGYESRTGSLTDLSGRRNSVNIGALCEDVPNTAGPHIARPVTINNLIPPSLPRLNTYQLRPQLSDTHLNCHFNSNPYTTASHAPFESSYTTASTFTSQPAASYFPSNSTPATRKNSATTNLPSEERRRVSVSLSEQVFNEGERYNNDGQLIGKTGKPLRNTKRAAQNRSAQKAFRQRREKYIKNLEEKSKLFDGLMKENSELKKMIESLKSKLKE
Summary of the method: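 E-scores (a modified Wilcoxon-Mann-Whitney statistic) were assigned by the Universal PBM Analysis Suite to every ungapped eight-base word pooled with its reverse complement. The input came from universal all-10-mer Agilent arrays made double-stranded by primer extension and probed with GST-tagged yeast transcription factors at about 100-200 nM. Fluorescent anti-GST detected bound protein, and masliner normalised the scans.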

Sequence | PBM E-score
CTCATGTC | -0.141
GCAGGTGA | -0.00692
AACGGCTT | -0.0579
AGCCATGG | -0.187
TAAACCGA | -0.0557
AGCCCTGC | -0.166
GTTCGTCA | -0.129
AGGGCCAT | -0.105
CGTGGGGA | -0.0867
CCGATCAC | 0.048
CTAGGGCC | -0.192
GCTAAGAC | -0.0441
CAAGCTCG | -0.0314
CCGTTGGC | -0.124
ATAAACGC | -0.0761
CTGTATCC | 0.0454
ATACCCTA | 0.0962
AATCTCTA | 0.171
CGTTGCAA | 0.045
CACCGCCG | -0.185
CAATATGA | 0.118
AGTAGACC | -0.00144
CACCCCTA | 0.0576
CTGCCTGC | -0.203
CCGGAGTC | 0.014

Sequence | PBM E-score
CGGACCTC | -0.228
GCTATAGA | -0.0994
GATGCGGC | -0.197
AGTTTAAC | -0.0624
CGAGACTA | 0.0429
CGCTTGGC | -0.268
GCAGGGGA | -0.215
AGCCTGGC | -0.163
CGGAACGC | 0.0289
GTAGCCCA | -0.129
ACACGTTG | -0.238
AGAAACGA | 0.127
ATGCCCCG | -0.148
ACATCCCC | 0.126
CCCCCAAA | -0.379
TACCGCAA | 0.0544
CCTCTGAG | -0.107
ACGGTGAG | -0.0402
CATCCTGA | 0.0709
CCATGGTA | 0.028
GAGATCGC | -0.0568
AAAGACAG | 0.199
CCCAGTAG | -0.0994
GGCATAAA | 0.0228
GTAGGAGA | -0.185

Exported comma-delimited: entries from further up.
Sequence,PBM E-score
CGCTTGGC,-0.268
GCAGGGGA,-0.215
AGCCTGGC,-0.163

Remaining list, next part

Sequence | PBM E-score
AGAGGGCG | -0.0549
ACAGTGAA | 0.0426
GACCTGAC | 0.0377
GAGGCCCA | -0.251
AGCCCCTA | -0.163
AATGTACC | -0.0742
TGAACTAA | 0.0395
AAGTTATC | 0.147
CTCGAGAG | -0.0194
GGATAACC | -0.0816
CCTACTCA | -0.0393
CGTTTCCC | -0.0818
CGCGACAG | -0.0201
CGCACAGA | -0.0574
CTCCGTAA | -0.0215
CCCATCTC | 0.0223
AAGCGGAG | -0.133
CCCTTGAC | -0.232
CAACTATG | 0.176
CAGGACTA | -0.0704
CGATTTCA | 0.0165
CTCGTTTA | 0.0384
CGTTTCCA | 0.0865
AAGATCTT | 0.0707
CGGCGTCA | -0.0143

Sequence | PBM E-score
CTTTTTAA | -0.0274
CTCTGCAG | -0.125
ACAAGCGG | 0.175
AATAGACC | -0.0281
ACCGTAAT | 0.223
GATGTCAC | 0.159
ATGAGAAC | 0.129
ATCATGAC | 0.233
ACTATCAA | 0.187
CCAGCCGA | -0.18
CGGAACTC | 0.0803
CACCGTAC | -0.0221
AAATCCTG | 0.016
CATGCTTA | 0.259
TCTAATCA | 0.231
GGATTTTA | -0.0448
CTACGTAG | 0.0359
AAGCGTCT | -0.221
AGGCCTTA | -0.154
CAATGACG | -0.163
TATTATCA | 0.242
ATGTAAGC | 0.431
CCTAAAGA | -0.182
GTAATCGA | 0.275
TGGAAACA | 0.13

Six records picked at random from the list so far:
Sequence | PBM E-score
CGTTGCAA | 0.045
AGCCTGGC | -0.163
CCCTTGAC | -0.232
CAATATGA | 0.118
AGCCATGG | -0.187
CCTCTGAG | -0.107

(cont.)

Sequence | PBM E-score
GAGATTCA | 0.0245
AGTGGCTA | -0.097
ACGAACAC | -0.0117
ATGTGATC | 0.129
CGTATAAA | 0.168
GCCTATCA | 0.074
ATATAGGA | 0.136
GCGGGGGA | -0.268
ATCACTTG | 0.0196
GGTCGCAA | -0.0356
CCATCACC | 0.0838
CCAAGGCA | -0.115
ACCGTGTC | -0.15
GACCCAAC | -0.0281
ACACTTCC | 0.00972
AATGTCGC | 0.0785
CTCCGGCA | -0.0384
GGGTCGAC | -0.075
CAGCGTAC | -0.141
CTCCTTTC | -0.12
AAGCTTTA | -0.0115
ACTGTAGA | 0.136
CGGGGTAC | -0.164
CAGGTCGC | -0.113
TCAAATAA | 0.047

Sequence | PBM E-score
ATTTCTCA | 0.0803
AGGGTATA | 0.142
ATGGGTTC | -0.132
GACAGATC | 0.109
ACAAAACC | 0.228
AACTCCCT | -0.142
CATTTATC | 0.0882
ACCTCGGG | -0.158
GAGGGTAA | -0.0367
ACGATTCT | 0.14
GTTTTATA | 0.148
ACTCAATG | 0.101
ACTCCGAG | 0.0431
CTGCTCTC | -0.109
GCATCTAC | 0.12
GACGACCC | -0.136
CGCCGTAC | -0.141
CAGCTTTC | -0.0153
GCGGGGCA | -0.0914
AACAGAAG | -0.0414
GACTCAGC | 0.0183
ACTCAGTA | 0.204
CAACGCCG | -0.0628
CCACAAGC | -0.23
CCGTGTAA | -0.059

Sequence | PBM E-score
AAGGCACC | -0.0903
CTACTCAA | 0.106
ACGTGTCA | -0.00138
GCGGTGAC | -0.129
TAAGGCCA | -0.119
CTACGCGC | 0.00209
GCGATTGA | -0.0807
ACAGTTCT | 0.0817
CGAGCAAG | -0.111
TCTGCGAA | -0.224
AAGCTATG | -0.085
GCACAACA | 0.0626
TCGCTCCA | -0.181
ACCACTGC | -0.0496
AGGACGCA | 0.0285
CCCCGCGG | -0.0531
GGTCGCTA | -0.112
GGTTTATA | -0.00975
GATCGTCA | -0.0267
AAGAGCAG | -0.139
ACTCGGAT | 0.109
CGCACGAA | -0.00612
